{"source": "PubChem BioAssay AID504834", "about": "(National Center for Advancing Translational Sciences (NCATS), 2011)", "note": "In all, about 320,000 compounds went through this assay and about 22,000 (6.9%) were called active. This list was built around the results that the source calls inconclusive (neither active nor inactive); the mix of calls is not that of the screen. Calls follow the shape of the dose curve; as a rule, active = well fitted inhibition curve with a large enough effect; inconclusive = small, poorly fitted or top-dose-only effect, or another doubt; inactive = no such curve, though single readings can be large or run the other way. Where the call is inconclusive, the potency comes from a doubtful curve fit. Potency is read from the fitted curve at half-maximal effect.", "data": [{"assay": "Primary qHTS for delayed death inhibitors of the malarial parasite plastid, 96 hour incubation", "conditions": "P. falciparum luciferase reporter growth; series mostly up to 28.7 µM", "in_short": "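P. falciparum expressing integrated firefly luciferase, in erythrocytes at 2% hematocrit, 0.05% parasitemia, incubated with compounds 96 h at 37 C, 5% CO2. Growth inhibition read as loss of luminescence; two-generation exposure targets delayed-death apicoplast inhibitors.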", "values": [{"compound": "Cc1ccc(SCC(=O)N/N=C/c2ccco2)cc1", "Potency": "inconclusive: 9.28 µM [inhibitor, single point]"}, {"compound": "CCN1CCN(c2ncnc3c2c(-c2ccccc2)cn3-c2ccc(F)cc2)CC1", "Potency": "inconclusive: 2.62 µM [inhibitor, partial curve]"}, {"compound": "O=C(O)c1ccc(Nc2ccc([N+](=O)[O-])c3nonc23)cc1", "Potency": "inconclusive: 10.4 µM [inhibitor, single point]"}, {"compound": "CC(=O)c1ccc(NC(=O)CCNS(=O)(=O)c2cc(Br)cnc2N)cc1", "Potency": "inactive"}, {"compound": "CCNc1nc(Oc2ccc(C(=O)OC)cc2)nc(N(C)C)n1", "Potency": "inconclusive: 13.1 µM [inhibitor, single point]"}, {"compound": "Cc1cc(C)c2nc(C)cc(Nc3ccc(C(=O)NCCO)cc3)c2c1", "Potency": "active: 11.7 µM"}, {"compound": "CN1CCN(C(=O)c2cc(Cl)ccc2Cl)CC1", "Potency": "inconclusive: 16.5 µM [inhibitor, partial curve, poor fit]"}, {"compound": "CCOC(=O)c1c(C)nc(-c2ccccc2)nc1NC(=O)CC", "Potency": "inconclusive: 0.329 µM [inhibitor, full curve, poor fit]"}, {"compound": "CCc1ccc(NC(=O)CCNS(=O)(=O)c2cccs2)cc1", "Potency": "inconclusive: 6.57 µM [inhibitor, partial curve]"}, {"compound": "CCOc1ccc(CCNC(=O)c2cc(C)on2)cc1OCC", "Potency": "inconclusive: 11.7 µM [inhibitor, partial curve, poor fit]"}, {"compound": "OC(c1nc2ccccc2[nH]1)C(O)c1nc2ccccc2[nH]1", "note": "(configuration not stated)", "Potency": "inconclusive: 4.15 µM [inhibitor, full curve]"}, {"compound": "COC(=O)CSc1nnnn1-c1ccccc1", "Potency": "inconclusive: 18.5 µM [inhibitor, single point]"}, {"compound": "O=C1c2cccnc2C(=O)N1CO", "Potency": "inactive"}, {"compound": "COCCCn1cc(C(=O)c2cc(OC)ccc2OCC(=O)N2CCCCC2C)cc(C#N)c1=O", "note": "(configuration not stated)", "Potency": "inconclusive: 4.65 µM [inhibitor, partial curve, poor fit]"}, {"compound": "COc1ccc(N2CCN(CCNC(=O)c3c(C)cc(=O)oc3C)CC2)cc1", "Potency": "inconclusive: 11.7 µM [inhibitor, partial curve]"}, {"compound": "Cn1c(CNC(=O)c2ccco2)nnc1SCC(=O)Nc1ccccc1Cl", "Potency": "inconclusive: 18.5 µM [inhibitor, single point]"}, {"compound": "COc1ccc(CN2CCCC(CO)(Cc3cccc(Cl)c3)C2)cc1OC", "note": "(configuration not stated)", "Potency": "inconclusive: 10.4 µM [inhibitor, partial curve]"}, {"compound": "CCOC(=O)c1ccc(S(=O)(=O)N2CCN(C(=O)CSc3nc4ccccc4o3)CC2)cc1", "Potency": "inconclusive: 4.65 µM [inhibitor, partial curve, poor fit]"}, {"compound": "O=C(Cc1ccc(-n2c(=O)c3sccc3n(Cc3ccc(F)cc3)c2=O)cc1)NCc1ccco1", "Potency": "inconclusive: 10.4 µM [inhibitor, single point]"}, {"compound": "COc1ccc(Cl)cc1NC(=O)c1cccc(NC(=O)CCC(=O)O)c1", "Potency": "inconclusive: 0.0329 µM [inhibitor, full curve, poor fit]"}, {"compound": "CC1(C)CC(=O)C=C(NC2CCCC(O)C2)C1", "note": "(configuration not stated)", "Potency": "inactive"}, {"compound": "COc1cc(CC(=O)N(c2ccccc2)c2nc(C)cs2)cc(OC)c1OC", "Potency": "inconclusive: 11.7 µM [inhibitor, partial curve, poor fit]"}, {"compound": "Cc1cccc(NC(=S)NNc2ncc(C(F)(F)F)cc2Cl)c1", "Potency": "inconclusive: 18.5 µM [inhibitor, single point]"}, {"compound": "CCN1CCC(=NNC(=O)CC23CC4CC(CC(C4)C2)C3)CC1", "Potency": "inconclusive: 0.0738 µM [inhibitor, full curve, poor fit]"}, {"compound": "COc1ccccc1NC(=O)NCC(=O)Nc1c(C)cccc1C", "Potency": "inactive"}, {"compound": "CC(C)NC(=O)N1c2ccccc2Sc2ccccc21", "Potency": "inactive"}, {"compound": "NC(=O)c1cc(-c2csc(-c3cccnc3)n2)ccc1O", "Potency": "inactive"}, {"compound": "COc1ccccc1N1CCN(C(=O)c2cc(=O)c3cc(C)cc(C)c3o2)CC1", "Potency": "inconclusive: 0.522 µM [inhibitor, full curve]"}, {"compound": "CC(C)(CO)Nc1nc(N2CCCC2)nc(N2CCCC2)n1", "Potency": "inconclusive: 16.5 µM [inhibitor, single point]"}, {"compound": "Cc1cc2c3c([nH]c2cc1S(=O)(=O)N1CCC2(CC1)OCCO2)CC(C)(C)CC3=O", "Potency": "inconclusive: 6.57 µM [inhibitor, partial curve, poor fit]"}, {"compound": "Cc1cc(C)c(C)c(S(=O)(=O)N2CCN(CC(=O)c3c(N)n(Cc4ccccc4)c(=O)n(C)c3=O)CC2)c1C", "Potency": "inconclusive: 8.28 µM [inhibitor, partial curve, poor fit]"}, {"compound": "COc1ccc(-c2nnn(CC(=O)N(Cc3cccs3)C(C)C(=O)NC3CCCC3)n2)cc1OC", "note": "(configuration not stated)", "Potency": "inconclusive: 18.5 µM [inhibitor, partial curve, poor fit]"}, {"compound": "Cc1ccc(CN(C)C(=O)CN2C(=O)NC(c3ccccc3)(c3ccccc3)C2=O)c(C)c1", "Potency": "inconclusive: 18.5 µM [inhibitor, single point]"}, {"compound": "O=C(c1ccccc1)N1CCN(C(=O)c2ccccc2)CC1", "Potency": "inactive"}, {"compound": "COc1cc([N+](=O)[O-])cc(/C=N/NC(=O)c2cncc(Br)c2)c1O", "Potency": "inconclusive: 18.5 µM [inhibitor, single point]"}, {"compound": "COc1ccc(C(=O)N/N=C/c2cc(Br)ccc2O)cc1OC", "Potency": "inconclusive: 3.7 µM [inhibitor, full curve]"}, {"compound": "CC(=O)Nc1ccc(C(=O)OCC(=O)c2ccc(S(=O)(=O)N3CCCCC3)cc2)cc1", "Potency": "inconclusive: 18.5 µM [inhibitor, single point]"}, {"compound": "Cn1c(=O)cc(OCC(=O)NCCCN2CCN(Cc3ccccc3)CC2)c2ccccc21", "Potency": "inconclusive: 18.5 µM [inhibitor, single point]"}, {"compound": "Cc1cccc(C(=O)N(NC(=O)Oc2ccccc2)C(C)(C)C)c1", "Potency": "inconclusive: 2.62 µM [inhibitor, single point]"}, {"compound": "COC(=O)/C=C1\\SC(=NC(=O)c2cccc([N+](=O)[O-])c2)NC1=O", "Potency": "inconclusive: 6.57 µM [inhibitor, partial curve, poor fit]"}, {"compound": "O=C(O)c1cccc(CN2C(=O)CSC2=O)c1", "Potency": "inconclusive: 18.5 µM [inhibitor, single point]"}, {"compound": "Cc1cc(-c2ccccc2)nc(N/N=C/c2ccccc2)n1", "Potency": "inactive"}, {"compound": "CCOC(=O)CSc1ncnc2c1cnn2-c1ccccc1", "Potency": "inactive"}, {"compound": "Cc1ccc(-c2nn(C(C)(C)C)c3ncnc(N)c23)cc1", "Potency": "active: 2.33 µM"}, {"compound": "Cc1cccn2c(=O)c3cc(C(=O)NCCN4CCOCC4)c(=N)n(Cc4cccnc4)c3nc12", "Potency": "active: 7.38 µM"}, {"compound": "c1csc(-c2nnc(NC3CCCCC3)c3ccccc23)c1", "Potency": "inconclusive: 18.5 µM [inhibitor, single point]"}, {"compound": "CC(C)NC(=O)C1CCN(C2CCN(C(=O)c3ccc4cccc(F)c4n3)CC2)CC1", "Potency": "inactive"}, {"compound": "Cc1c(C)n2c(SCC(=O)N3CC(C)OC(C)C3)nnc2[nH]c1=O", "note": "(configuration not stated)", "Potency": "active: 5.22 µM"}, {"compound": "COc1cccc(C(=O)O/N=C/c2ccc(Sc3ccc(C)cc3)nc2)c1", "Potency": "inactive"}, {"compound": "CC(=O)Nc1ccc(-n2c(C)c(C(C)=O)c(C(C)=O)c2C)cc1", "Potency": "inconclusive: 14.7 µM [inhibitor, single point]"}, {"compound": "COc1ccc(OC)c(CC(NC(C)=O)C(=O)NC2CCN(C(=O)c3cccc(C)c3)CC2)c1", "note": "(configuration not stated)", "Potency": "inactive"}, {"compound": "Cc1nn(Cc2ccccc2)c(C)c1C(=O)OCC(=O)c1cc(C)n(CC(F)(F)F)c1C", "Potency": "inconclusive: 18.5 µM [inhibitor, single point]"}, {"compound": "COc1cc(CN2CCN(CC#Cc3ccccc3)CC2CCO)cc(OC)c1", "note": "(configuration not stated)", "Potency": "inconclusive: 14.7 µM [inhibitor, single point]"}, {"compound": "O=C(CN1C(=O)CCC1=O)Nc1ccc(Br)cc1", "Potency": "inactive"}, {"compound": "CC(C)C(=O)c1cc2c(cc1NC(=O)Nc1cccc3ccccc13)OCCO2", "Potency": "inconclusive: 11.7 µM [inhibitor, partial curve, poor fit]"}, {"compound": "O=C(CCC(=O)N1C[C@H]2C[C@@H](C1)c1cccc(=O)n1C2)NCc1ccc(F)cc1", "Potency": "inconclusive: 4.15 µM [inhibitor, single point]"}, {"compound": "CC(=O)NC12CC3CC(C1)CC(C(=O)Nc1nc4c(C)cccc4s1)(C3)C2", "Potency": "inconclusive: 13.1 µM [inhibitor, single point]"}, {"compound": "CC(C)(C)SCCNC(=O)CSCc1ccc([N+](=O)[O-])cc1", "Potency": "inconclusive: 18.5 µM [inhibitor, single point]"}, {"compound": "FC(F)(F)c1cccc(NC(=S)N2CCCCCC2)c1", "Potency": "inconclusive: 8.28 µM [inhibitor, partial curve, poor fit]"}, {"compound": "O=C(CN1C(=O)c2ccccc2C1=O)NCc1ccc(F)cc1", "Potency": "inconclusive: 18.5 µM [inhibitor, single point]"}, {"compound": "COc1ccc(C2=NS(=O)(=O)N(C)C(C(=O)N3C(C)CCCC3C)=C2)cc1", "note": "(configuration not stated)", "Potency": "inconclusive: 16.5 µM [inhibitor, single point]"}, {"compound": "COc1ccc(NC(=O)CCc2nnc3ccc(NCc4ccco4)nn23)cc1", "Potency": "inconclusive: 18.5 µM [inhibitor, single point]"}, {"compound": "CCn1nc(C)c(CN2CCC(Oc3ccc(C(=O)N4CCCC4)cc3)CC2)c1C", "Potency": "inconclusive: 11.7 µM [inhibitor, partial curve]"}, {"compound": "CCCN1CCN(CCNC(=O)Nc2ccccc2Cl)CC1", "Potency": "inconclusive: 18.5 µM [inhibitor, single point]"}, {"compound": "COc1cccc(N2CCN(C(=O)CN(c3cc(C)cc(C)c3)S(=O)(=O)c3c(C)noc3C)CC2)c1", "Potency": "active: 10.4 µM"}, {"compound": "Cc1ccc(NC(=O)CCNS(=O)(=O)c2cccc3nonc23)cc1", "Potency": "inactive"}, {"compound": "COc1cc(S(=O)(=O)N2CCOCC2)ccc1NC(=O)COC(=O)c1ccccn1", "Potency": "inconclusive: 18.5 µM [inhibitor, single point]"}]}]}
